The nature of this experiment: qHTS Assay for Lipid Storage Modulators in Drosophila S3 Cells.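 On cell number change: cells counted by Cell Tracker Red CMTPX staining in the red channel.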 Particulars: BODIPY lipid droplet fluorescence, 18-24 h; for cell number change: measured here: cell count max response, cells fed with added oleic acid. The method in brief: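 Drosophila S3 cells loaded with oleic acid (400 uM, as added) and compounds at several concentrations; lipid droplets imaged by 488-nm laser-scanning cytometry, 500–530 nm intensity and object ratio to cell channel. Percent activity normalized to 20 uM Triacsin C.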

The mark [1] stands for this setting: measured here: cell number channel AC50, cells fed with added oleic acid.
The mark [2] stands for this setting: measured here: lipid fluorescence (Fed channel) AC50, cells fed with added oleic acid.

The structures appear in SMILES notation. The list shows a part of the results. The main result of the screen is listed elsewhere. These columns were measured beside it and carry no call. Compounds called inactive in the main read-out are mostly missing here. Words in brackets tell the shape of the fitted curve; partial curves, single points and poor fits give uncertain potencies.

Consider `COc1ccc(/C=C/c2noc(-c3ccccc3OC(C)=O)n2)cc1`, for which the cell number change was -8.45%.

On to `O=C(Nc1ccc([N+](=O)[O-])cn1)C1CCCCC1`, for which the cell number change stood at 35.4%. The concentration at half-maximal activity (AC50) under setting [1] was 25.9 µM [rising, single point]. For the same compound, the half-maximal activity concentration (AC50) under setting [2] is 29.1 µM [rising, single point].

Take `NS(=O)(=O)c1cc(Cl)c(Cl)c(S(N)(=O)=O)c1`: the cell number change was -24.8%. In addition, under setting [2], the AC50 was 6.51 µM [falling, partial curve].

Regarding `COc1ccccc1/C=C/CN1CCC(Oc2ccc(C(=O)N3CCCCC3)cc2)CC1`, the cell number change is -11.4%. Further, the half-maximal activity concentration (AC50) under setting [2] is 29.1 µM [rising, single point].

With `Cc1cccc(COCC(Cc2ccccc2)N2CCN(C(=O)c3cccc(C)c3)CCC2=O)c1` (stereo not drawn), the cell number change turned out to be 43.5%. The AC50 under setting [1] was 29.1 µM [rising, single point]. Further, the AC50 under setting [2] is 6.51 µM [rising, single point].

In the case of `Cn1c2ccccc2c2cnn(CC(=O)Nc3ccc(F)cc3F)c(=O)c21`, the cell number change is -1.22%. Moreover, under setting [2], the AC50 was 4.11 µM [rising, full curve].

Take `COc1cccc(Nc2nc(-c3cccs3)nc3ccccc23)c1`: the cell number change came to 19.9%. Moreover, the AC50 under setting [2] is 0.731 µM [rising, partial curve, poor fit].

`O=C(CCc1nnc(CCCCc2ccccc2)o1)NC1CCCC1`: the cell number change was 34.5%.

On to `c1ccc(OCCOCCN2CCc3ccccc3C2)cc1`, for which the cell number change stood at 17%. Also, the concentration at half-maximal activity (AC50) under setting [2] is 4.61 µM [rising, partial curve, poor fit].

With `COc1ccccc1NC(=O)Cn1c2ccccc2c2nc3n(c(=O)c21)CCS3`, the cell number change was determined as 31.9%. For the same compound, the concentration at half-maximal activity (AC50) under setting [1] was 0.0731 µM [rising, full curve, poor fit]. Further, the half-maximal activity concentration (AC50) under setting [2] was 4.11 µM [rising, full curve, poor fit].

In the case of `COc1cccc(/C=N/NC(=O)N/N=C/c2cccc(OC)c2O)c1O`, the cell number change was -16.4%. Moreover, under setting [2], the AC50 was 29.1 µM [falling, single point].

Consider `O=[N+]([O-])c1cc(/C=N/N2CCN(c3ccccc3)CC2)ccc1Cl`, for which the cell number change worked out at 19.9%. Besides, the concentration at half-maximal activity (AC50) under setting [2] is 29.1 µM [rising, single point].

Regarding `COc1ccc(S(=O)(=O)N2CCOC2CNC(=O)C(=O)NCc2ccncc2)cc1OC` (stereo not drawn), the cell number change is 1.78%.

Consider `O=C(O)C1CCCN1C(=O)Nc1ccc(Cl)cc1` (stereo not drawn), for which the cell number change is 22.1%. Also, the half-maximal activity concentration (AC50) under setting [2] is 6.51 µM [rising, partial curve].

Take `CSc1ccccc1NC(=O)CN(C)C(=O)C1CCN(C(=O)Nc2ccccc2)CC1`: the cell number change came out at 26.1%.

Take `CCc1ccc(C(C(=O)NC2CCCC2)N(C(=O)c2csnn2)C2CC2)cc1` (stereo not drawn): the cell number change is -16.7%.

On to `C=CCN(CC=C)C(=S)NC(=O)c1ccc(-c2ccccc2)cc1`, for which the cell number change turned out to be 5.65%. Further, the AC50 under setting [1] is 6.51 µM [rising, partial curve, poor fit]. Besides, under setting [2], the half-maximal activity concentration (AC50) was 6.51 µM [rising, single point].

For the compound `O=[N+]([O-])c1cccc(CN2C[C@@]34C=C[C@@H](C[C@@H]3S2(=O)=O)O4)c1`, the concentration at half-maximal activity (AC50) under setting [2] was 20.6 µM [rising, single point].

`CCn1c(O)c(C=NCc2ccccc2)sc1=S`: the cell number change was -5.07%. Under setting [2], the AC50 is 0.731 µM [falling, full curve, poor fit].

Consider `Cc1ccccc1OCC(=O)Nc1cccc(NC(=O)c2ccco2)c1`, for which the cell number change was -19.3%.

`COc1ccc(Cn2nnnc2CN2CCc3ccccc3C2)cc1`: the cell number change is -6.25%. Under setting [2], the AC50 was 29.1 µM [rising, single point].

For the compound `COc1ccc2c(c1)OC13CCCCC1C2C(C(=O)c1ccccc1)C(=O)N3` (stereo not drawn), the cell number change came to 4.09%. Under setting [2], the concentration at half-maximal activity (AC50) is 16.4 µM [falling, partial curve].

For the compound `Cc1c(C(=O)N2CCN(C(=O)c3ccccc3)CC2)oc2ccc(F)cc12`, the AC50 under setting [2] was 18.4 µM [falling, partial curve, poor fit].

As to `NC(=O)NC(=O)CN1c2cccc3cccc(c23)S1(=O)=O`, the cell number change came to 23.5%. Besides, the AC50 under setting [2] is 0.58 µM [rising, single point].

With `C/C(O)=c1/cnc2nc3ccccc3n2c1=O`, the cell number change is -14.5%. Besides, the AC50 under setting [1] is 0.00517 µM [falling, full curve, poor fit].

For the compound `Cc1cc(=O)oc2c(C)c(OCC(=O)NCc3ccccn3)ccc12`, the cell number change was -11%. Further, the concentration at half-maximal activity (AC50) under setting [1] was 2.59 µM [falling, partial curve, poor fit].

As to `Cc1ccc(O)c(NC2=C(Cl)C(=O)N(Cc3ccccc3)C2=O)c1`, the cell number change is -8.28%.

Take `COc1ccc(C(=O)NN(C)c2nc(-c3ccccc3)cc(C)c2S(C)(=O)=O)cc1`: the cell number change came out at 47.3%. In addition, the AC50 under setting [1] is 1.46 µM [rising, full curve].

Turning to `O=C(COC(=O)c1cc[n+]([O-])cc1)Nc1ccc([N+](=O)[O-])cc1`, the cell number change was 11.9%.

Regarding `Cc1ccc(Cl)cc1N1CCN(Cc2cc3c(cc2O)CCC3)CC1`, the AC50 under setting [2] is 3.26 µM [rising, partial curve].

`CCCn1c(SCC(=O)NCc2ccc(Cl)cc2)n[nH]c1=O`: the cell number change was -29.4%. Moreover, the AC50 under setting [2] was 29.1 µM [falling, single point].

For the compound `CCC(=O)NCCNC(=O)c1c(SC)nsc1SC`, the cell number change was 16.5%. Also, under setting [2], the AC50 is 29.1 µM [rising, single point].

As for `Cc1cccc(-n2ncc3c(N4CCc5ccccc54)ncnc32)c1`, the concentration at half-maximal activity (AC50) was 6.51 µM [falling, single point] under setting [1] and 0.082 µM [rising, full curve, poor fit] under setting [2].

For `COc1cccc(NC(=O)Cn2cnc3sc(C)c(S(=O)(=O)N4CCCCC4)c3c2=O)c1`, the cell number change came to 19.8%.

As for `O=c1oc2cc([N+](=O)[O-])ccc2nc1/C=C(O)/C=C/c1ccccc1`, the cell number change is -10.9%.

Regarding `COc1ccc(Cl)cc1S(=O)(=O)N1CCN(Cc2ccc3c(c2)OCO3)CC1`, the AC50 under setting [2] was 6.51 µM [falling, single point].

On to `CCCN(CCC)CCCNC(=O)C1c2cc(OC)c(OC)cc2C(=O)N(C)C1c1cccs1` (stereo not drawn), for which the cell number change is 3.73%. Further, the AC50 under setting [2] is 29.1 µM [falling, single point].

For `CCC(C)NC(=O)CO/N=C/c1ccccc1OC(F)F` (stereo not drawn), the cell number change was found to be 23%. The concentration at half-maximal activity (AC50) under setting [1] was 6.51 µM [rising, single point]. In addition, the concentration at half-maximal activity (AC50) under setting [2] is 1.64 µM [rising, partial curve].

For the compound `COc1ccc(C(=O)NC(C(=O)NCC2(N3CCCCC3)CCCCC2)C(C)C)cc1` (stereo not drawn), the cell number change was -6.01%. The AC50 under setting [1] is 0.116 µM [falling, full curve, poor fit]. For the same compound, the AC50 under setting [2] was 0.103 µM [falling, full curve, poor fit].

As to `O=C(N/N=C/c1ccccc1O)c1cc[n+]([O-])cc1`, the AC50 under setting [2] is 6.51 µM [falling, single point].

As to `CC1CN(c2sc(S(C)(=O)=O)nc2S(=O)(=O)c2ccc(Cl)cc2)CC(C)O1` (stereo not drawn), the cell number change was -9.89%.

With `O=[N+]([O-])c1cccnc1N1CCN(c2ccc(F)cc2)CC1`, the cell number change was -21.6%. Also, under setting [2], the concentration at half-maximal activity (AC50) was 18.4 µM [falling, single point].

As for `COc1ccc([N+](=O)[O-])cc1NC(=O)Cc1noc2ccc(C)cc12`, the cell number change was -14.5%.

`CC(OC(=O)CCC1CCCCC1)C(=O)Nc1ccc(S(N)(=O)=O)cc1` (stereo not drawn): the cell number change is -37.5%. The half-maximal activity concentration (AC50) under setting [1] was 16.4 µM [falling, single point].

Regarding `O=C(c1ccc(Br)o1)N(Cc1ccccc1)Cc1ccccc1`, the cell number change was -16.6%. Further, the half-maximal activity concentration (AC50) under setting [2] is 1.84 µM [rising, partial curve].

For `COC(=O)Nc1ccc(S(=O)(=O)Nc2cc(C(F)(F)F)c[nH]c2=O)cc1`, the cell number change came out at 8.56%.

In the case of `Cc1nn(-c2ccccc2)c(Cl)c1C(=O)NCC(=O)O`, the cell number change was -13.7%. Moreover, the AC50 under setting [2] was 23.1 µM [falling, partial curve].

Take `c1ccc2cc(CNCc3cccc4ccccc34)ccc2c1`: the cell number change is -42.2%. For the same compound, the AC50 under setting [1] is 29.1 µM [falling, single point]. For the same compound, the half-maximal activity concentration (AC50) under setting [2] is 29.1 µM [falling, single point].

Turning to `CC1(c2cccc([N+](=O)[O-])c2)CC(C)(C)N(C(=O)c2ccccc2)c2ccccc21` (stereo not drawn), the cell number change is 31%. Also, the AC50 under setting [1] was 3.26 µM [rising, partial curve, poor fit]. Further, the half-maximal activity concentration (AC50) under setting [2] is 5.17 µM [rising, full curve].

Take `CCCCn1c(-c2csc3ccccc23)n[nH]c1=S`: the AC50 under setting [2] is 0.651 µM [falling, single point].

On to `CCc1ccc(C(C)NC(=O)/C(C#N)=C\c2cn[nH]c2-c2ccccc2)cc1` (stereo not drawn), for which the cell number change is -40.6%. Besides, the AC50 under setting [1] was 16.4 µM [falling, partial curve, poor fit]. Further, the concentration at half-maximal activity (AC50) under setting [2] was 0.13 µM [rising, full curve, poor fit].

Take `N#C/C(=N\Nc1ccccc1Cl)C(=O)c1ccccc1`: the cell number change is -8.68%.

In the case of `O=C(N/N=C/c1ccc(C(F)(F)F)cc1)c1ccncc1`, the cell number change is 11%. Moreover, under setting [2], the AC50 was 29.1 µM [rising, single point].

As for `Nc1ccc(C(=O)OCc2ccncc2)cc1[N+](=O)[O-]`, the cell number change was 12%. Besides, the concentration at half-maximal activity (AC50) under setting [1] is 0.731 µM [falling, single point]. For the same compound, the concentration at half-maximal activity (AC50) under setting [2] is 0.116 µM [rising, full curve, poor fit].

Take `O=C(CNC(=O)c1ccc2c(c1)OCO2)N/N=C(Br)/C=C/c1ccccc1`: the cell number change was -36.7%. Further, under setting [1], the concentration at half-maximal activity (AC50) was 1.64 µM [rising, partial curve]. For the same compound, the AC50 under setting [2] is 2.31 µM [rising, partial curve].

For the compound `CC(Sc1nc2ccccc2c(=O)n1CCc1ccc(S(N)(=O)=O)cc1)C(=O)NC(N)=O` (stereo not drawn), the cell number change was -16.7%.

Consider `Cc1ccc(S(=O)(=O)N(C)C)cc1NC(=O)c1cncc(Br)c1`, for which, under setting [2], the half-maximal activity concentration (AC50) was 5.8 µM [falling, partial curve].

Regarding `CN(c1nc(-c2ccc(Br)cc2)cs1)C1CCS(=O)(=O)C1` (stereo not drawn), the AC50 runs as follows: under setting [1], 6.51 µM [rising, partial curve, poor fit]; under setting [2], 2.31 µM [rising, single point].

`COC(=O)C(C)Oc1ccc(-c2nccc(-c3ccc(F)cc3)n2)cc1` (stereo not drawn): the cell number change came out at 1.06%. Besides, the AC50 under setting [2] was 6.51 µM [rising, single point].

Take `CCOC(=O)C1CCCN(C(=O)c2sc3nc(-c4ccc(OC)cc4)cn3c2C)C1` (stereo not drawn): the cell number change was -32.5%. Further, the half-maximal activity concentration (AC50) under setting [1] is 29.1 µM [falling, single point]. Besides, the AC50 under setting [2] was 16.4 µM [falling, single point].

As to `N#Cc1cccc(NS(=O)(=O)c2ccc(S(=O)(=O)N3CCOCC3)cc2)c1`, the cell number change is 43.3%. Also, the AC50 under setting [1] was 14.6 µM [rising, partial curve]. For the same compound, the AC50 under setting [2] was 6.51 µM [falling, single point].

Values taken from PubChem BioAssay AID2685 (National Center for Advancing Translational Sciences (NCATS), 2010).
